Results deposited as PubChem BioAssay AID504774 (Drosophila RNAi Screening Center, 2011)
In all, the deposit lists about 23,000 reagents; below is a random part of those that have a named target and a result. 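Values are quantile-normalised luminescence on an arbitrary scale; higher means more cells surviving MMS.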 A plus sign joins genes that one reagent is predicted to hit. Further read-outs or replicates are left out here. Reagent sequences are not shown.

- Test: 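Knock-downs that shift viability of MMS-exposed cells relative to untreated ones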 (primary screen)
- System: Drosophila Kc167 cells
- Knock-down reagent: long dsRNA against Drosophila genes, about 0.25 µg dsRNA per well
- Timing: about 6 days: 3 days knock-down, then 3 days with or without MMS
- Challenge: methyl methanesulphonate 0.004% (w/v) for 3 days after knock-down
- Detection: 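Viability in wells given MMS, read as ATP luminescence, normalised by quantiles plate by plate and averaged across replicates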
- Direction: mean viability with MMS and viability with MMS: higher = more surviving cells after MMS

mean viability with MMS	viability with MMS, replicate 1	gene	amplicon
3.62e6	4.08e6	HIP + HIP-R	DRSC18245
3.48e6	3.85e6	Grasp65 (GeneID 40177)	DRSC10917
3.40e6	3.89e6	Cpr65Aw (GeneID 38706)	DRSC08794
3.69e6	4.03e6	Alk (GeneID 53425)	DRSC05918
3.14e6	3.51e6	Alk (GeneID 53425)	DRSC23342
3.40e6	3.59e6	Gas41 (GeneID 33973)	DRSC03156
3.50e6	3.86e6	CG2955 (GeneID 33622)	DRSC00552
3.10e6	3.26e6	U2af38 (GeneID 33201)	DRSC00796
3.58e6	4.00e6	CG1943 (GeneID 40844)	DRSC12576
3.54e6	3.91e6	CkIIbeta (GeneID 32132)	DRSC20230
3.28e6	3.86e6	CG30031 + deltaTry + gammaTry	DRSC07622
3.63e6	4.22e6	CG32196 (GeneID 317908)	DRSC09548
3.64e6	4.08e6	Acp53Ea (GeneID 36874)	DRSC05916
3.55e6	4.03e6	Toll-4 (GeneID 34235)	DRSC03458
3.36e6	3.80e6	CG34183 (GeneID 5740752)	DRSC01099
3.15e6	3.92e6	Marf (GeneID 31581)	DRSC18329
3.48e6	3.96e6	Cyfip (GeneID 41861)	DRSC15679
3.44e6	3.78e6	CG18540 (GeneID 37097)	DRSC06767
3.55e6	4.08e6	Flo2 (GeneID 32425)	DRSC19062
3.57e6	3.97e6	Flo2 (GeneID 32425)	DRSC20244
3.37e6	3.84e6	scaf (GeneID 35505)	DRSC04849
3.64e6	4.11e6	pch2 (GeneID 41013)	DRSC14368
3.54e6	3.99e6	CG15011 (GeneID 38518)	DRSC08464
3.37e6	3.85e6	CG32485 (GeneID 38363)	DRSC22666
3.62e6	4.10e6	mtSSB (GeneID 41968)	DRSC17005
3.50e6	4.02e6	Scm (GeneID 41168)	DRSC16853
3.52e6	3.94e6	CG11109 (GeneID 40507)	DRSC11633
3.37e6	3.77e6	CG3420 (GeneID 35585)	DRSC04995
3.39e6	3.82e6	st (GeneID 39836)	DRSC11399
3.63e6	4.18e6	Prosbeta4R2 (GeneID 33451)	DRSC00503
3.50e6	3.99e6	CG17242 (GeneID 59226)	DRSC00493
3.40e6	3.74e6	CG5084 (GeneID 37051)	DRSC06913
3.59e6	4.08e6	CG5984 (GeneID 43281)	DRSC15930
3.45e6	3.96e6	RpL10Aa (GeneID 41811)	DRSC15518
3.55e6	4.03e6	Drak (GeneID 32097)	DRSC19778
3.75e6	4.23e6	Drak (GeneID 32097)	DRSC23298
3.61e6	4.08e6	CG9902 (GeneID 32622)	DRSC20212
3.62e6	3.92e6	uri (GeneID 37924)	DRSC04111
3.47e6	3.89e6	CG15125 (GeneID 37258)	DRSC06547
3.53e6	3.95e6	S-Lap8 (GeneID 36844)	DRSC06870
3.57e6	4.09e6	S-Lap8 (GeneID 36844)	DRSC21372
3.36e6	3.77e6	Ttd14 (GeneID 37119)	DRSC06632
3.33e6	3.71e6	Ttd14 (GeneID 37119)	DRSC06942
3.41e6	3.82e6	SelR (GeneID 41309)	DRSC16071
3.43e6	3.77e6	Tbp (GeneID 37476)	DRSC04662
2.87e6	3.25e6	Tbp (GeneID 37476)	DRSC23111
3.64e6	4.27e6	CG4839 (GeneID 34348)	DRSC02783
3.62e6	3.98e6	CG4839 (GeneID 34348)	DRSC02784
3.45e6	3.87e6	LRR (GeneID 35715)	DRSC06444
3.57e6	4.02e6	Elba2 (GeneID 33442)	DRSC00731
3.55e6	4.03e6	CG9986 (GeneID 43386)	DRSC16586
3.38e6	3.78e6	Hira (GeneID 31680)	DRSC18672
3.44e6	3.99e6	Arpc2 (GeneID 35311)	DRSC02113
3.49e6	3.95e6	CG16863 (GeneID 34784)	DRSC01892
3.71e6	4.05e6	Hmgs (GeneID 44154)	DRSC06866
3.49e6	3.92e6	CG13321 (GeneID 36430)	DRSC06358
3.69e6	4.16e6	TMEM216 + CG11760	DRSC14375
3.71e6	4.01e6	Flad1 (GeneID 32240)	DRSC19898
3.23e6	3.72e6	Prosbeta3 (GeneID 41079)	DRSC16801
3.12e6	3.51e6	RpL35 (GeneID 31483)	DRSC18347
3.63e6	4.16e6	CG31075 (GeneID 43244)	DRSC16016
3.42e6	3.91e6	He + NimB5	DRSC22876
3.51e6	3.89e6	CG7059 (GeneID 42626)	DRSC16187
3.57e6	4.03e6	boss (GeneID 43146)	DRSC16916
3.22e6	3.68e6	snRNP-U1-C (GeneID 42274)	DRSC15804
3.53e6	3.92e6	frm (GeneID 38624)	DRSC09753
3.61e6	4.13e6	CG32444 (GeneID 40406)	DRSC11677
3.63e6	4.13e6	CG13654 (GeneID 43028)	DRSC14654

4 entries from above, set out differently:
{"gene": "Flo2 (GeneID 32425)", "amplicon": "DRSC19062", "mean viability with MMS": 3.55e6, "viability with MMS, replicate 1": 4.08e6}
{"gene": "Flo2 (GeneID 32425)", "amplicon": "DRSC20244", "mean viability with MMS": 3.57e6, "viability with MMS, replicate 1": 3.97e6}
{"gene": "scaf (GeneID 35505)", "amplicon": "DRSC04849", "mean viability with MMS": 3.37e6, "viability with MMS, replicate 1": 3.84e6}
{"gene": "pch2 (GeneID 41013)", "amplicon": "DRSC14368", "mean viability with MMS": 3.64e6, "viability with MMS, replicate 1": 4.11e6}
